PMC10279913
Where two headings read alike, the source gives them in different places. Results are given in words; binding and its absence hold for the method and conditions named. In cells and extracts the contact can be indirect. Some entries that bind do so weakly or less than the wild type. Sequences can lack the tags named with a protein.

Protein sequences, listed by entry. Tags and fused reporters are not part of them. Residues count along the entry.
UniProt O60488, residues 42-711: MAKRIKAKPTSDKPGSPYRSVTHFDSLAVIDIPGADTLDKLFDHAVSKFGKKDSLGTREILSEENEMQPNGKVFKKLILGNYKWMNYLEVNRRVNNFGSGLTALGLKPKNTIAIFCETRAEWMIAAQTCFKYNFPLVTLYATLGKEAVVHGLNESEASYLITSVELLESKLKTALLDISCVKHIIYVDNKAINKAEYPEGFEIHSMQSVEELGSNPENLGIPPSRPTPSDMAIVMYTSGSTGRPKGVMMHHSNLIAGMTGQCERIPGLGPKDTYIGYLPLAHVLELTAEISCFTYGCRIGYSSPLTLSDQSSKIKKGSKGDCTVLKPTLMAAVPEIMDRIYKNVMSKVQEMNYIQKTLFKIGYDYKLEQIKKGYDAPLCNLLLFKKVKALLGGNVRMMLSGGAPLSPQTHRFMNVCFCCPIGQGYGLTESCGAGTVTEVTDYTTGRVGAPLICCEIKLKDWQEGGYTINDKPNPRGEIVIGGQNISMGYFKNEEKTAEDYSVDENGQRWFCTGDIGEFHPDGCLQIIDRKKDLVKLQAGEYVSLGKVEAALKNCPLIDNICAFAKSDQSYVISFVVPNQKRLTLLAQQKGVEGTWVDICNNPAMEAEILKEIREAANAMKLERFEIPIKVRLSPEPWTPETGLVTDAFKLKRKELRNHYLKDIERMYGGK

T1: VN173-HA-hAdipoR2-cMYC (human) (UniProt Q86V24)
T1 sequence: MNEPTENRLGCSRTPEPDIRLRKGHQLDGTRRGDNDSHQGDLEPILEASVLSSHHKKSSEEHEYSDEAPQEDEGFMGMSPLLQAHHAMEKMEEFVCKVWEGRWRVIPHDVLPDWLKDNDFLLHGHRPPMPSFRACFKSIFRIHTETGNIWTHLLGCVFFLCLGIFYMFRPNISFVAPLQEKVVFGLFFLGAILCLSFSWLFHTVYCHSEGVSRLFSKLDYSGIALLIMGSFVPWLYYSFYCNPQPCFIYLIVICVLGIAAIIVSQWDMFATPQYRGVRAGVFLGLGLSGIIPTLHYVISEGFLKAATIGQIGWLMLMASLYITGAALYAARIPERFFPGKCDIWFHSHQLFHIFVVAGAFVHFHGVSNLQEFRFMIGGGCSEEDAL


Tests used:
[1] = target: T1, VN173-HA-hAdipoR2-cMYC (human); experiment: split reporter; BiFC with Venus fragments VN173 and VC155 in transfected HEK293 cells; live imaging 24 h after transfection, 37 °C, 5% CO2
[2] = target: T1, VN173-HA-hAdipoR2-cMYC (human); experiment: as above; remark: listed apart in the source

binding [1]	binding [2]	Molecule
binds	–	hACSL4_v1-FLAG-VC155 (from UniProt O60488-2 1-670) (enzyme)
–	binds	FLAG-hHACD3-VC155 (enzyme, UniProt Q9P035 1-362) MENQVLTPHVYWAQRHRELYLRVELSDVQNPAISITENVLHFKAQGHGAKGDNVYEFHLEFLDLVKPEPVYKLTQRQVNITVQKKVSQWWERLTKQEKRPLFLAPDFDRWLDESDAEMELRAKEEERLNKLRLESEGSPETLTNLRKGYLFMYNLVQFLGFSWIFVNLTVRFCILGKESFYDTFHTVADMMYFCQMLAVVETINAAIGVTTSPVLPSLIQLLGRNFILFIIFGTMEEMQNKAVVFFVFYLWSAIEIFRYSFYMLTCIDMDWKVLTWLRYTLWIPLYPLGCLAEAVSVIQSIPIFNETGRFSFTLPYPVKIKVRFSFFLQIYLIMIFLGLYINFRHLYKQRRRRYGQKKKKIH
